Values from PubChem BioAssay AID743121 (NCATS, 2013).

Purpose: 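Genes whose silencing strengthens cell killing by camptothecin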 (primary screen)
Cells: MDA-MB-231 cells, a human breast cancer line
Reagent: single siRNA against human genes, 20 nM siRNA (0.8 pmol per well)
Time to read-out: 120 h (drug added 48 h after transfection, read 72 h later)
Conditions: camptothecin 20 nM (about EC30) for 72 h; vehicle 0.1% DMSO in parallel plates
Measured: 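CellTiter-Glo ATP signal, scaled to control siRNA as percent viability; sensitisation given as log2 of untreated divided by camptothecin-treated viability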
Direction: log2 vehicle/camptothecin viability: higher = stronger sensitisation to camptothecin; viability with camptothecin and viability without drug: higher = more viable cells
Rule for the call: 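Each gene scored by redundant siRNA activity (RSA) over its individual siRNA ratios; a gene is called active at p < 0.001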
In all, the deposit lists about 26,000 reagents; below is a part drawn at random. Over the whole deposit, 167 (0.63%) got an active call. 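Calls are per gene from RSA p-values that are not deposited; an individual active-marked siRNA can sensitise only weakly.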 Reagents against one gene are numbered here.

gene,reagent no.,log2 vehicle/camptothecin viability,viability with camptothecin (% of control),viability without drug (% of control),call
TYRO3,1,0.177,57.7,65.3,inactive
TYRO3,2,-0.00811,102,101,inactive
TYRO3,3,-0.505,21.6,15.2,inactive
TYRO3,4,0.296,19.7,24.2,inactive
KCNC4,1,-0.355,85.4,66.8,inactive
KCNC4,2,0.00219,60.8,60.9,inactive
KCNC4,3,0.0419,18.9,19.5,inactive
CTRB1,1,-0.0491,81.6,78.9,inactive
CTRB1,2,-0.0829,95.6,90.3,inactive
CTRB1,3,-0.0375,60.2,58.6,inactive
CTRB1,4,-0.072,61.2,58.2,inactive
CSAD,1,-0.032,74.9,73.3,inactive
CSAD,2,-0.0582,85.7,82.3,inactive
CSAD,3,0.00621,99.5,99.9,inactive
CSAD,4,0.0423,79.8,82.2,inactive
PTPRE,1,0.454,63.9,87.5,inactive
PTPRE,2,-0.316,72.9,58.5,inactive
PTPRE,3,-0.318,63.7,51.1,inactive
PTPRE,4,0.359,81.2,104,inactive
ALDH8A1,1,-0.0358,105,102,inactive
ALDH8A1,2,1.16,22.4,50.1,inactive
ALDH8A1,3,0.356,58.4,74.8,inactive
ALDH8A1,4,-0.443,70.5,51.8,inactive
PPP2R5C,1,0.175,28.5,32.2,inactive
PPP2R5C,2,-0.19,108,95,inactive
PPP2R5C,3,-0.731,96.3,58,inactive
PPP2R5C,4,-0.203,106,91.6,inactive
BAZ1A,1,0.582,41.9,62.8,inactive
BAZ1A,2,-0.271,136,112,inactive
BAZ1A,3,-0.33,34.6,27.5,inactive
BAZ1A,4,0.109,98,106,inactive

Records above whose gene name begins with P or p:
gene,reagent no.,log2 vehicle/camptothecin viability,viability with camptothecin (% of control),viability without drug (% of control),call
PTPRE,1,0.454,63.9,87.5,inactive
PTPRE,2,-0.316,72.9,58.5,inactive
PTPRE,3,-0.318,63.7,51.1,inactive
PTPRE,4,0.359,81.2,104,inactive
PPP2R5C,1,0.175,28.5,32.2,inactive
PPP2R5C,2,-0.19,108,95,inactive
PPP2R5C,3,-0.731,96.3,58,inactive
PPP2R5C,4,-0.203,106,91.6,inactive
